{"source": "patent US20260294305A1", "about": "“METHOD FOR EX VIVO MEASURING GLOMERULAR FILTRATION RATE IN A SUBJECT” (Assistance Publique - Hôpitaux de Paris, priority 2023, published 2026)", "assay": "GFR measurement with iomeprol clearance assessed by CT urography (CT-mGFR), living kidney donor candidates", "assay_type": "in vivo", "procedure": "This is a cross-sectional study using data from kidney donor candidates who were screened in hospital between July 2016 and October 2022, with both GFR measurement by iohexol clearance, and kidney morphology assessment by CT urogaphy.\nAll living kidney donor candidates investigated in Nephrology Department between July 2016 and October 2022, were eligible for inclusion. In accordance with the KDIGO guidelines (Lentine K L et al. ([11])), GFR was measured in all these individuals from iohexol clearance. […] The CT urography had to include 4 polychromatic acquisition phases (unenhanced, arterial, nephrographic, and excretory phases) with a monophasic injection of iomeprol at 350 or 400 mg of iodine per milliliter (Iomeron® 350 or 400, Bracco Imaging, Milano, Italy).\nCT-mGFR was assessed by the same U×V/P calculation used to determine the urinary clearance of iohexol: the amount of iomeprol excreted through the urinary system during a given period of time was divided by the mean serum iomeprol concentration during the same period. The blood and urine concentration of iomeprol were assessed by attenuation measurement (Hounsfield Units, HU) in the different areas of interest. The time periods were derived from the acquisition time of the different phases. […] Manual segmentations of bladder, upper urinary tracts and kidneys were performed using the Advantage Windows software (Advantage Window v4.7; GE Healthcare, Buc, France), using different thresholds depending on the CT phase and then manually finalized. For non-contrast and portal venous phase: only a lower limit was set to 0 HU, in order to exclude fat pixels. For excretory phases: a specific threshold was adapted for each patient based on visual analysis in order to reduce extra-urinary pixels as much as possible. Also, the lower threshold used for upper excretory tract was used as the higher threshold for kidney segmentation to avoid overlap in segmentations. The urinary excretion rate of iomeprol between arterial and excretory phases (U×V, expressed as HU/min) was calculated from urinary excretion of iomeprol into the bladder (Uexcr-Bladder), urinary excretion of iomeprol into the upper excretory tract (calyces, pelvis, ureters) (Uexcr-tract), and urinary excretion of iomeprol into the kidney tubules (Uexcr-tubules): U×V=Uexcr-Bladder+Uexcr-tract+Uexcr-tubules. Uexcr-bladder was the volume of the bladder at the excretory phase (Bladder-Volume) multiplied by the mean CT-attenuation of the bladder at the excretory phase (HU-Bladder-excr) minus the CT-attenuation of the urine in bladder at the unenhanced phase (HU-Bladder-unenhanced), then divided by the time period between the excretory phase and the arterial phase (time period): Uexcr-Bladder=Bladder-volume×(HU-Bladder-excr−HU-Bladder-unenhanced)/time period. When the bladder was not included on the unenhanced phase, urine CT-attenuation could be measured on the nephrographic phase, the urine density at the nephrographic phase being slightly higher than at the unenhanced phase, but without clinical consequence on the CT-mGFR calculation. Uexcr-tract was determined in the same way by studying the upper excretory tract (calyces, pelvis, ureters) instead of the bladder. […] The denominator of the U×V/P equation, was the calculated serum iomeprol concentration at the midpoint of the period between the arterial and excretory phases. […]", "data": [{"smiles": "CN(C(=O)CO)c1c(I)c(C(=O)NCC(O)CO)c(I)c(C(=O)NCC(O)CO)c1I", "note": "(centres unmarked) [iomeprol]", "values": [{"measurement": "CT-attenuation value of the aorta at the arterial phase", "setting": "mean ± SD", "value": "311.2 ± 83.0", "unit": "HU"}, {"measurement": "CT-attenuation value of the bladder at the excretory phase", "setting": "median [IQR]", "value": 363.6, "unit": "HU"}, {"measurement": "Lin's CCC, CT-mGFR vs mGFR", "setting": "vs iohexol clearance, 95% CI (0.653; 0.845)", "value": 0.766}, {"measurement": "Absolute bias, mean, CT-mGFR vs mGFR", "setting": "vs iohexol clearance, 95% CI (−1.9; 4.1)", "value": 1.1, "unit": "ml/min/1.73 m2"}, {"measurement": "IQR of the bias [Q1; Q3], CT-mGFR vs mGFR", "setting": "vs iohexol clearance, [−6.6, 9.6]", "value": 16.2, "unit": "ml/min/1.73 m2"}]}]}
